Results deposited as PubChem BioAssay AID1671195 (Yale University, 2021).

Assay: 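Regulators of LDL receptor activity judged by labelled LDL uptake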 (primary screen)
System: human Huh7 hepatoma cells
Reagents: siRNA pool against human genes, 18 nM
Timing: about 2 to 2.5 days of knockdown, then 8 h LDL uptake
Challenge: DiI-labelled LDL at 30 µg/ml for 8 h, in lipoprotein-deficient serum medium
Read-out: 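Fluorescent LDL signal imaged in cells, scaled to the plate median, robust z-score for each replicate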
Scale: robust z-score: higher = more LDL uptake after knockdown
Active means: 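a gene counts as active if at least two replicate z-scores exceed ±2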
The whole screen tested about 22,000 reagents; shown is a part drawn at random. Over the whole deposit, about 1,510 (6.9%) were called active. 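Active includes knockdowns raising or lowering LDL uptake; positive z-scores mean more uptake, negative mean less.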 Entries without a mark were called inactive.

| gene symbol | robust z-score, replicate 1 | robust z-score, replicate 2 | robust z-score, replicate 3 |
| --- | --- | --- | --- |
| POM121L12 (POM121 transmembrane nucleoporin like 12) | 1.59 | 1.52 | 1.71 |
| NSDHL (NAD(P) dependent 3-beta-hydroxysteroid dehydrogenase NSDHL) | -0.222 | 0.0604 | 0.0137 |
| DCDC2B (doublecortin domain containing 2B) | -0.408 | 0.0029 | -0.471 |
| PHC3 (polyhomeotic homolog 3) | 0.686 | 0.0384 | 0.55 |
| ATG9A (autophagy related 9A) | 0.973 | 0.728 | 1.14 |
| CDCP1 (CUB domain containing protein 1) | 1.65 | 1.55 | 1.62 |
| FAM171A2 (family with sequence similarity 171 member A2) | -0.257 | -0.122 | -0.156 |
| FBXL17 (F-box and leucine rich repeat protein 17) | 0.0436 | 0.874 | 0.409 |
| ZNF404 (zinc finger protein 404) | -0.262 | -0.149 | -0.22 |
| CYSLTR1 (cysteinyl leukotriene receptor 1) | -2.49 | 2.88 | 0.0766 |
| TRPC7 | 0.112 | -0.496 | -0.197 |
| KCNH2 (potassium voltage-gated channel subfamily H member 2) | -0.00116 | 0.292 | 0.289 |
| RPSAP28 (ribosomal protein SA pseudogene 28) | -0.41 | -0.372 | 0.106 |
| PDE7B (phosphodiesterase 7B) | 0.807 | 0.419 | 0.716 |
| CNTLN (centlein) | 0.545 | 1.14 | 1.62 |
| MYBL2 (MYB proto-oncogene like 2) | -0.295 | -0.805 | -0.881 |
| RNPS1 (RNA binding protein with serine rich domain 1) | -0.773 | 0.00245 | -0.437 |
| ISM1 (isthmin 1) | -0.441 | -0.422 | -1.87 |
| RPS27P4 (ribosomal protein S27 pseudogene 4) | -1.25 | -1.04 | -0.715 |
| SLC9A2 | 0.697 | 0.624 | -0.102 |
| PHB1P3 (PHB1 pseudogene 3) | 0.269 | -0.579 | -0.474 |
| SGMS2 (sphingomyelin synthase 2) | -0.6 | -0.544 | 0.0201 |
| APOF (apolipoprotein F) | -1.73 | -1.91 | -1.8 |
| KIR2DS4 | -1.75 | -0.323 | -1.53 |
| SHLD2P3 (shieldin complex subunit 2 pseudogene 3) | -0.855 | -1.2 | -1.53 |
| TESPA1 (thymocyte expressed, positive selection associated 1) | -0.37 | 1.39 | 0.546 |
| FSIP1 (fibrous sheath interacting protein 1) | 0.418 | 2.05 | 1.7 |
| SLC27A1 | -0.0843 | -0.62 | -1.18 |
| HSD17B8 (hydroxysteroid 17-beta dehydrogenase 8) | 0.522 | 0.617 | 0.622 |
| CUL3 (cullin 3) | 0.362 | 0.767 | -0.267 |
| CAMK2A (calcium/calmodulin dependent protein kinase II alpha) | -0.24 | 0.196 | 0.481 |
| MRPL41 (mitochondrial ribosomal protein L41) | 0.173 | -0.24 | 0.747 |
| LOC338825 (retired record) | -0.503 | -0.478 | -0.507 |
| RPL26L1 (ribosomal protein L26 like 1) | -0.733 | -1.95 | -1.71 |
| LOC390877 (adenylate kinase isoenzyme 1-like) | -0.389 | -0.195 | -0.608 |
| DHRS9 (dehydrogenase/reductase 9) | -2.24 (active) | -1.38 | -2.56 |
| TMEM44 (transmembrane protein 44) | 0.857 | 0.903 | 0.491 |
| WNT5A (Wnt family member 5A) | -0.445 | 1.15 | -0.97 |
| H2AC6 (H2A clustered histone 6) | -0.231 | 2.11 | -0.343 |
| ATP8B5P (ATPase phospholipid transporting 8B5, pseudogene) | 1.84 | 1.65 | 1.22 |

A few values from the list.
Result for ZNF404 (zinc finger protein 404) in “robust z-score, replicate 3”: -0.22
Under “robust z-score, replicate 3”, SLC27A1 shows -1.18
Value of CUL3 (cullin 3) in “robust z-score, replicate 1”: 0.362

More records follow.
| gene symbol | robust z-score, replicate 1 | robust z-score, replicate 2 | robust z-score, replicate 3 |
| --- | --- | --- | --- |
| KPNA2 (karyopherin subunit alpha 2) | -0.42 | -0.944 | -0.644 |
| PCDH17 (protocadherin 17) | -0.568 | -0.604 | -1.16 |
| LOC441414 (retired record) | -0.0562 | 0.503 | 0.244 |
| LOC441093 (retired record) | 0.204 | 0.146 | -0.0445 |
| LOC389771 (retired record) | -0.696 | -0.641 | -1.29 |
| PGM5P1 | 0.228 | 0.773 | 0.734 |
| RELCH | -1.27 | -0.0774 | -0.515 |
| FGF20 (fibroblast growth factor 20) | -2.21 (active) | -2 | -1.99 |
| ELOVL7 (ELOVL fatty acid elongase 7) | -2.09 | -1.74 | -1.75 |
| UBXN10 (UBX domain protein 10) | -0.47 | -0.504 | -0.358 |
| TM9SF1 (transmembrane 9 superfamily member 1) | -0.223 | -0.576 | -0.182 |
| MAP7 (microtubule associated protein 7) | -1.97 | -1.49 | -1.91 |
| LOC390734 (retired record) | -0.313 | -0.691 | -0.452 |
| SETD4 (SET domain containing 4) | 1.11 | 0.546 | 1.17 |
| HABP2 (hyaluronan binding protein 2) | -1.86 | -1.51 | -2.04 |
| PAQR8 (progestin and adipoQ receptor family member 8) | 0.0954 | 0.238 | 0.252 |
| CDC45 (cell division cycle 45) | -0.305 | -0.0691 | 0.156 |
| PCDH10 (protocadherin 10) | 0.189 | 0.536 | 0.162 |
| RORB (RAR related orphan receptor B) | -0.472 | -1.02 | -0.122 |
| PPM1B (protein phosphatase, Mg2+/Mn2+ dependent 1B) | 0.0372 | -0.416 | -0.549 |
| MIR570HG (MIR570 host gene) | -0.724 | -0.482 | -0.542 |
| CYFIP1 (cytoplasmic FMR1 interacting protein 1) | 0.557 | 3.3 | 0.0725 |
| NME2 (NME/NM23 nucleoside diphosphate kinase 2) | -0.205 | -0.986 | -0.462 |
| CWH43 (cell wall biogenesis 43 C-terminal homolog) | -0.483 | -0.409 | -0.539 |
| DCBLD2 (discoidin, CUB and LCCL domain containing 2) | -0.178 | 1.21 | 0.878 |
| WDR12 (WD repeat domain 12) | 0.678 | -1.07 | 0.705 |
| STC1 (stanniocalcin 1) | 1.05 | 0.862 | -0.57 |
| USP39 (ubiquitin specific peptidase 39) | 0.17 | 0.357 | 0.314 |
